Here are results for one molecule from US9359196B2, “Antiproliferative compositions comprising curcumin analogs and methods of producing and using same” (The Board of Regents of the University of Oklahoma, priority 2009, dated 2016).

For the data set, the system named is H441 cells. The experiment in a line: Illumina microarray gene expression analysis of H441 cells. As to conditions: H441, 1 μM, 12 hours. The class given is cell-based, human. The protocol: RNA Extraction and microarray sample processing: H441 cells were seeded in […] tissue culture plates at a density of 1×10^6 cells per well. The cells were allowed to attach and grow overnight and then treated with CLEFMA (n=5) at 1 μM in culture medium supplemented with 5% FBS. The DMSO concentration was maintained at 0.1% per well. Control wells (n=5) received equivalent volumes of DMSO without any test compound. The cells were kept in the treatment medium for 12 hours, after which the cells were washed twice with ice-cold Dulbecco's phosphate buffered saline (PBS). The total RNA was extracted using the RNAeasy kit (Qiagen, CA) as per the manufacturer's instructions. […]
The expression of >48,000 genes were compared using Illumina Human WG-6 v3 arrays. […] The cRNA was then hybridized overnight to Illumina BeadChips, and the microarray chips were washed with high stringency and labeled with streptavidin-Cy3 (Amersham Biosciences; Piscataway, N.J.) prior to scanning on an Illumina BeadArray Reader.
Microarray Data Analysis: The Illumina WG-6_v3 array data for each experimental condition were exported from the BeadStudio Software for further analysis. […] The genes that expressed below the noise level under all experimental conditions (approximately 1,600) were excluded from consideration, as their expression could not be reliably assessed. […]

On to `O=C(O)C=CC(=O)N1CC(=Cc2ccccc2Cl)C(=O)C(=Cc2ccccc2Cl)C1` [Compound 29, 4-[3,5-Bis-(2-chlorobenzylidene)-4-oxo-piperidin-1-yl]-4-oxo-2-butenoic acid], for which the “number of genes downregulated” value is listed as 59 and the “number of genes stably upregulated (>1.5-fold)” value is recorded as 95.
